Data source: PubChem BioAssay AID1259425 (University of Nebraska Medical Center, 2018)

Aim: 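Seek colon cancer weak points whose silencing resembles KSR1 loss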 (primary screen)
Cell system: HCT116 human colon cancer cells
Reagent: siRNA pool against human genes, 50 nM siRNA
Measurement: 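After 50 nM siRNA pool, branched-DNA assay measures six marker transcripts per well, minus blank, normalised to the geometric mean of two housekeeping transcripts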
Direction: BNIP3L mRNA: higher = more BNIP3L transcript after knockdown; NDRG1 mRNA: higher = more NDRG1 transcript after knockdown; BNIP3 mRNA: higher = more BNIP3 transcript after knockdown; ALDOC mRNA: higher = more ALDOC transcript after knockdown; ACSL5 mRNA: higher = more ACSL5 transcript after knockdown
The deposit covers about 14,000 reagents; this is a part drawn at random. Not given: the time to read-out.

gene	BNIP3L mRNA, set 1	NDRG1 mRNA, set 1	BNIP3 mRNA, set 1	ALDOC mRNA, set 1	ACSL5 mRNA, set 1
GKN1 (gastrokine 1)	0.0949	0.163	0.285	0.0496	0.246
SESN2 (sestrin 2)	0.103	0.476	0.325	0.0558	0.353
SUPT4H1 (SPT4 homolog, DSIF elongation factor subunit)	0.17	0.16	0.549	0.0387	0.337
HOXC6 (homeobox C6)	0.0719	0.288	0.236	0.0278	0.265
CDO1 (cysteine dioxygenase type 1)	0.156	0.176	0.296	0.0126	0.0822
ACAN (aggrecan)	0.129	0.196	0.323	0.00239	0.277
ARFGEF3 (ARFGEF family member 3)	0.157	0.151	0.3	0.0261	0.308
NDRG1 (N-myc downstream regulated 1)	0.0787	0.0896	0.297	0.0174	0.0872
SLC22A1	0.152	0.188	0.215	0.0225	0.0633
SLC22A15	0.122	0.362	0.404	0.0184	0.284
KCNF1	0.142	0.246	0.216	0.00934	0.265
CLCA2 (chloride channel accessory 2)	0.0842	0.144	0.224	0.0205	0.12
CRYZL1 (crystallin zeta like 1)	0.142	0.31	0.286	0.0387	0.223
CCL7 (C-C motif chemokine ligand 7)	0.124	0.561	0.447	0.0354	0.276
FGFR1OP2 (FGFR1 oncogene partner 2)	0.0574	0.259	0.523	0.0418	0.126
IL22RA2 (interleukin 22 receptor subunit alpha 2)	0.0493	0.109	0.199	0.00828	0.113
ADAR (adenosine deaminase RNA specific)	0.0712	0.402	0.317	0.0223	0.137
MFHAS1 (multifunctional ROCO family signaling regulator 1)	0.164	0.113	0.313	0.0145	0.222
SEMA3E (semaphorin 3E)	0.122	0.155	0.32	0.0343	0.129
DLX4 (distal-less homeobox 4)	0.0536	0.273	0.298	0.011	0.143
SLC25A24	0.178	0.347	0.492	0.0456	0.314
RNF113A (ring finger protein 113A)	0.0886	0.158	0.211	0.0342	0.0824
RPL3 (ribosomal protein L3)	0.357	0.173	0.389	0.0242	0.0375
QTMAN (queuosine-tRNA mannosyltransferase)	0.188	0.22	0.338	0.049	0.127
ZMYM5 (zinc finger MYM-type containing 5)	0.179	0.218	0.289	0.0351	0.126
C10orf95 (chromosome 10 open reading frame 95)	0.163	0.265	0.288	0.0936	0.194
LIN7B (lin-7 cell polarity scaffold B)	0.0433	0.385	0.234	0.0108	0.132
ARF6 (ARF GTPase 6)	0.15	0.123	0.233	0.0244	0.137
DRC3 (dynein regulatory complex subunit 3)	0.161	0.213	0.253	0.0828	0.13
CES1P1 (carboxylesterase 1 pseudogene 1)	0.0574	0.153	0.28	-0.00394	0.252
COPB1 (coat protein complex I subunit beta 1)	0.317	1.02	0.524	0.0457	0.242
THOC7 (THO complex subunit 7)	0.0913	0.269	0.251	0.0355	0.135
SIRPA (signal regulatory protein alpha)	0.118	0.277	0.44	0.00478	0.208
SHROOM3 (shroom family member 3)	0.132	0.217	0.198	0.041	0.277
NMI (N-myc and STAT interactor)	0.137	0.158	0.334	0.0221	0.206
LINC00472 (long independently transcribed non-coding RNA 472)	0.0716	0.329	0.247	0.0321	0.16
EFHD1 (EF-hand domain family member D1)	0.13	0.266	0.368	0.0429	0.17
VPS37B (VPS37B subunit of ESCRT-I)	0.0868	0.328	0.314	0.0238	0.146
STAG1 (STAG1 cohesin complex component)	0.0705	0.172	0.241	0.035	0.139
MT1E (metallothionein 1E)	0.0817	0.199	0.348	0.00672	0.129
HEY2	0.098	0.102	0.308	0.0317	0.0777
ATP6V0A2 (ATPase H+ transporting V0 subunit a2)	0.122	0.138	0.367	0.0302	0.0952
DHX58 (DExH-box helicase 58)	0.0887	0.579	0.219	0.0711	0.105
CA5B (carbonic anhydrase 5B)	0.076	0.237	0.219	0.0111	0.228
C1orf198 (chromosome 1 open reading frame 198)	0.139	0.333	0.369	0.0232	0.192
FCAR (Fc alpha receptor)	0.102	0.322	0.295	0.0336	0.232
LPAR3 (lysophosphatidic acid receptor 3)	0.236	0.0557	0.366	0.0355	0.182
ADAM23 (ADAM metallopeptidase domain 23)	0.0939	0.0988	0.132	0.0138	0.0869
MAGEL2 (MAGE family member L2)	0.163	0.249	0.363	0.0352	0.171
PGD (phosphogluconate dehydrogenase)	0.129	0.511	0.317	0.0343	0.147
LMBR1L (limb development membrane protein 1 like)	0.0884	0.0718	0.287	0.0256	0.103
MATR3 (matrin 3)	0.045	0.102	0.33	0.0237	0.129
DIMT1 (DIM1 rRNA methyltransferase and ribosome maturation factor)	0.0577	0.144	0.227	0.00779	0.173
PGC (progastricsin)	0.238	0.94	0.413	0.0489	0.292
IPO11 (importin 11)	0.0894	0.215	0.498	0.032	0.247
SPOCK1	0.0527	0.0735	0.246	0.0123	0.119
TLR10 (toll like receptor 10)	0.0707	0.182	0.274	0.0152	0.243
ERRFI1 (ERBB receptor feedback inhibitor 1)	0.0934	0.246	0.262	0.0208	0.146
PLSCR4 (phospholipid scramblase 4)	0.137	0.159	0.37	0.0903	0.2
MAP4K3 (mitogen-activated protein kinase kinase kinase kinase 3)	0.12	0.0653	0.253	0.00774	0.184
ZC3HC1 (zinc finger C3HC-type containing 1)	0.134	0.0889	0.353	0.0395	0.14
NCDN (neurochondrin)	0.157	0.179	0.378	0.0196	0.169
GALNS (galactosamine (N-acetyl)-6-sulfatase)	0.219	0.325	0.467	0.021	0.378
